1 molecule from paper PMC11265427 can be followed below.

Chains of the proteins cited; added tags and fusions are not shown.
UniProt Q00765: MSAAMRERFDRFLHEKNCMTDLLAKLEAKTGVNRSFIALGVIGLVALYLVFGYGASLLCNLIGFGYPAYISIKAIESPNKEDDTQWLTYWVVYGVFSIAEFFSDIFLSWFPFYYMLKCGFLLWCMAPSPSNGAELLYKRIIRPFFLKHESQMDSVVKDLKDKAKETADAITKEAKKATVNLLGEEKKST

Results are given in words; binding and its absence hold for the method and conditions named. In cells and extracts the contact can be indirect. Some entries that bind do so weakly or less than the wild type.

The assay addresses Receptor expression-enhancing protein 5 (REEP5) (UniProt Q00765). Kind of assay: co-IP; IP antibody coupled to AminoLink resin in a Pierce spin column; lysate oscillated with the resin for 2 h, washed, eluted, western blot with REEP5 and CLEC5A antibodies; which antibody precipitated is not stated.

B1: C-type lectin member 5 A (CLEC5A) (protein, UniProt Q9NY25 1-188)
chain: MNWHMIISGLIVVVLKVVGMTLFLLYFPQIFNKSNDGFTTTRSYGTVSQIFGSSSPSPNGFITTRSYGTVCPKDWEFYQARCFFLSTSESSWNESRDFCKGKGSTLAIVNTPEKLKFLQDITDAEKYFIGLIYHREEKRWRWINNSVFNGNVTNQNQNFNCATIGLTKTFDAASCDISYRRICEKNAK
For the molecule B1, the binding result was “binds”.
